Among the data in patent publication US20190352387A1 are binding values, retold here.

The chains behind the UniProt entries cited, without tags or fusion partners. Where a name states a change or a piece, a line headed by the entry shows the natural chain unless it says otherwise.
UniProt Q99P67: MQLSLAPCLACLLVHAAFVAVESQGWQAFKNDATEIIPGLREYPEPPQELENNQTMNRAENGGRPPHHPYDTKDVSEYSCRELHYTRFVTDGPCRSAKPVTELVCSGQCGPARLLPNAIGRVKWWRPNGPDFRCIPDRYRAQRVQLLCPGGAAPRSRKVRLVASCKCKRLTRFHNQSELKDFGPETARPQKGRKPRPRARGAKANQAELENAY

In assay [1] the target is Recombinant rat sclerostin (rat) (UniProt Q99P67). Description: SPR (Biacore T200), 37 C, dissociation at pH 5.8 after pH 7.4; legend: # refers to slow dissociation, koff at pH 5.8 cannot be determined.
Assay [2] has the same target. Description: SPR (Biacore T200), 37 C, pH 5.8; legend: n.d. refers to weak binding, KD cannot be determined. Background: In SPR one partner is held on a chip, and binding of the other changes the refractive index at the surface.

Where a chain is given by its changes, count along the chain named. These are yes or no findings as the source states them, for the method shown. Some entries that bind do so weakly or less than the wild type.

B1: mabA (antibody, V domains shown)
VH: EVQLVQSGAEVKKPGASVKVSCKASGYTFTDYNMHWVRQAPGQGLEWMGEINPNSGGAGYNQKFKGRVTMTTDTSTSTAYMELRSLRSDDTAVYYCARLGYDDIYDDWYFDVWGQGTTVTVSS
VL: DIQMTQSPSSLSASVGDRVTITCRASQDISNYLNWYQQKPGKAPKLLIYYTSRLLSGVPSRFSGSGSGTDFTLTISSLQPEDFATYYCQQGDTLPYTFGGGTKVEIK
As to B1, the binding result in assay [1] was “binds”.

B2: mabA_NpH3 (antibody, V domains shown)
VH: B1 VH
VL: B1 VL with T51H, Q89H
Turning to B2, in assay [1], the binding result is “binds”.

B3: mabA_pH3 (antibody, V domains shown)
VH: B1 VH with N54H, G57H, G100H, Y105H
VL: B1 VL with Q27H
B3: the binding entry in assay [2] is given as “binds”.

B4: mabA_NpH2 (antibody, V domains shown)
VH: B1 VH
VL: B1 VL with Y50H
Take B4: the binding entry in assay [1] is recorded as “binds”.
